This note sets out measurements from patent EP4606823A1.

Chains of the proteins cited; added tags and fusions are not shown. Residues count along the entry.
UniProt Q8NHJ6, residues 22-259: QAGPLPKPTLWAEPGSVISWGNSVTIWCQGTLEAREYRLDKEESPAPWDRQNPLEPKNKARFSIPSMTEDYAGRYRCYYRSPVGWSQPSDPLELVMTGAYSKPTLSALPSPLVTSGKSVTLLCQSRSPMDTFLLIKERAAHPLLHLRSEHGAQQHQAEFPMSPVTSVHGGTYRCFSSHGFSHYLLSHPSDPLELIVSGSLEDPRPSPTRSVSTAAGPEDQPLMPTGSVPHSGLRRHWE

These are yes or no findings as the source states them, for the method shown. Some results given as binding are weak or reduced against the parent protein; the word gives no strength. Where a sequence is shown, tags or fusion partners need not be part of it.

For assay [1], the target named is LILRB4 protein (UniProt Q8NHJ6). Put plainly: SPR; LILRB4 protein stationary phase, ApoE mobile phase 1, NLB(G4S)IGG1FC mobile phase 2.
The target is the same in assay [2]. Put plainly: SPR competition; LILRB4 protein stationary phase, NLB(G4S)IGG1FC mobile phase; competitor NLB14.

B1: NLB14 VHH antibody fused with human IgG1 (Fc) (Fc fusion, not shown: a dimerising Fc or GST)
chain: DVQLQESGGGLVQPGGSLRLSCAASGFTLDYYAIGWFRQAPGKEREGVSCVSSSDGSTYYADSVKGRFTISRDNAKNTVYLQMNSLKPEDTAVYYCAADQYSSTWTIRLTRCHFGSWGQGTQVTVSSGGGGS
Consider B1, for which the binding result with LILRB4 protein [1] was “binds”.

B2: NLB4 VHH antibody fused with human IgG1 (Fc) (Fc fusion, not shown: a dimerising Fc or GST)
chain: DVQLQESGGGLVQSGGSLRLSCLASGTSGNVKAVGWYGWYRQAPGKQREVVATITRGGIPNYADSVQGRFTISRDNAQDTVFLQMNSLKPADTAVYYCYARILTDDWHDLWGQGTQVTVSSGGGGS
For B2, the binding entry in the assay with LILRB4 protein [1] and in the assay with LILRB4 protein [2] was “binds” in each case.
